The results in this text go back to the supplement of paper PMC11732987, “Enantioselective OTUD7B fragment discovery through chemoproteomics screening and high-throughput optimisation” (Communications Chemistry, 2025).

Sequences of proteins named here, by UniProt entry; tags and fusion partners are left off. A change or cut given only in a name is not applied to a line headed by its entry. Residues count along the entry.
UniProt Q6P5Z2: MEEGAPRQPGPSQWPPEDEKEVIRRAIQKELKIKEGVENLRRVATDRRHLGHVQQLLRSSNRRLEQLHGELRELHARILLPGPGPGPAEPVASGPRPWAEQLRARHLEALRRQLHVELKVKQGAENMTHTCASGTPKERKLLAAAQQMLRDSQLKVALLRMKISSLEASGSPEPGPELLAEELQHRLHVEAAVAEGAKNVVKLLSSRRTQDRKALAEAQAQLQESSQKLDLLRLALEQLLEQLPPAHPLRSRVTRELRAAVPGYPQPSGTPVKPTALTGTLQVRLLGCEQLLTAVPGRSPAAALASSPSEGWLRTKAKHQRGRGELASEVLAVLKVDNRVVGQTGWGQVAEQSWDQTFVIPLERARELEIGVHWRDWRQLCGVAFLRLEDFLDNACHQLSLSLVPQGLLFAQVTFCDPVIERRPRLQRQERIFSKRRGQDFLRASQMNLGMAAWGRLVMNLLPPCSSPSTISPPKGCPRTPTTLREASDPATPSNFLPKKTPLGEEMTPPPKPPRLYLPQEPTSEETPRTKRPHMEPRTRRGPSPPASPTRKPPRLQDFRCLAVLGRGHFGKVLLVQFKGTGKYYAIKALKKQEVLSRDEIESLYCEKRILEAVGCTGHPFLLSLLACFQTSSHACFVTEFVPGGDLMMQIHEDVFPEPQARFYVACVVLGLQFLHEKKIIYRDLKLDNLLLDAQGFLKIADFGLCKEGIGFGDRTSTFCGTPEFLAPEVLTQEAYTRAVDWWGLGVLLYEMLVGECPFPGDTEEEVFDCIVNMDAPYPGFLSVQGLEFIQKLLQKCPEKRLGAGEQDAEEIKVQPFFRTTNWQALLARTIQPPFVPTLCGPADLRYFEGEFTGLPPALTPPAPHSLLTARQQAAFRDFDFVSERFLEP
UniProt Q9H9Y6, whole entry, looked up: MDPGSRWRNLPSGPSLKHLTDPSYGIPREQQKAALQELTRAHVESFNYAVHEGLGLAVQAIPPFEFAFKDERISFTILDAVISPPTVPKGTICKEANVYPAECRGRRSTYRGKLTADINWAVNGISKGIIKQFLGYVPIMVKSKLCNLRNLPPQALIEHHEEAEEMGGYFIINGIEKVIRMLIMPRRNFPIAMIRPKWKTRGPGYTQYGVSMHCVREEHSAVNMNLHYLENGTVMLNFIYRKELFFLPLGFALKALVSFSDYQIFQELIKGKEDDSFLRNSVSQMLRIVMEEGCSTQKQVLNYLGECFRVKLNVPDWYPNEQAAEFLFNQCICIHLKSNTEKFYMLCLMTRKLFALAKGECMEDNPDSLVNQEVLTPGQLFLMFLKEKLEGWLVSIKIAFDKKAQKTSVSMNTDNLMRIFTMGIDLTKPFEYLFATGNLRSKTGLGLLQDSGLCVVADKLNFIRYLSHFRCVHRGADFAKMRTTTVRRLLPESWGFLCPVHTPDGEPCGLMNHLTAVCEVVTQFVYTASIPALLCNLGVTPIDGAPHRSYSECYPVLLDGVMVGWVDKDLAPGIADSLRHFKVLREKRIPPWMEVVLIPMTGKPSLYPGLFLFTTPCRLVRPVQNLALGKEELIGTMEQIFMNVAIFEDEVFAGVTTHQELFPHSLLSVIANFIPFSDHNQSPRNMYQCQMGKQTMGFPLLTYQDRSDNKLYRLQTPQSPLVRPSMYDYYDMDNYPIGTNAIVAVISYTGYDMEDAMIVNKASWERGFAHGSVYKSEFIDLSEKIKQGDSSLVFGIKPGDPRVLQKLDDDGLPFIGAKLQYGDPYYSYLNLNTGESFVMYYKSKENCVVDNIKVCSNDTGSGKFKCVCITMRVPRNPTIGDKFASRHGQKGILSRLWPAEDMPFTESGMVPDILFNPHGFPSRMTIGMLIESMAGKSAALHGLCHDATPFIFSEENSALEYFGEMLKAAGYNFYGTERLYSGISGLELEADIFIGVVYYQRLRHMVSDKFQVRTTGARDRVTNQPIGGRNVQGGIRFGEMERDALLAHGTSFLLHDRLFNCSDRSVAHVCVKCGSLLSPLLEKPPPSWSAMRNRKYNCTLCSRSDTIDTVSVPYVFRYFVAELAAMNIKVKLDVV
UniProt Q7RTV0, whole entry, looked up: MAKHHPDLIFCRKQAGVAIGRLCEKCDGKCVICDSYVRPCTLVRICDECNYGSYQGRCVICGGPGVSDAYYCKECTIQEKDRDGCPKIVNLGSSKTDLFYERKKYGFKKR
UniProt P55347: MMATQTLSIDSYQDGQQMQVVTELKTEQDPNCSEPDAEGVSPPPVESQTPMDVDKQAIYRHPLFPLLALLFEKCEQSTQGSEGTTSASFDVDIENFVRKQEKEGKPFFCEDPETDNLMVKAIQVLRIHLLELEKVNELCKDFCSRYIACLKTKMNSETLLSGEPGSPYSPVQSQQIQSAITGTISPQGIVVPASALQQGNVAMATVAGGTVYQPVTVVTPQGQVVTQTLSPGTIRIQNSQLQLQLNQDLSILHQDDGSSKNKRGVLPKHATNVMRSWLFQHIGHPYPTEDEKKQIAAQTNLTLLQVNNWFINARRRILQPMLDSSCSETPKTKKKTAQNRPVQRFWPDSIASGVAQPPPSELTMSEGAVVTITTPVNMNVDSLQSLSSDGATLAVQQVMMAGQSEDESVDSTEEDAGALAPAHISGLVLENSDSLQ
UniProt Q7Z4H8: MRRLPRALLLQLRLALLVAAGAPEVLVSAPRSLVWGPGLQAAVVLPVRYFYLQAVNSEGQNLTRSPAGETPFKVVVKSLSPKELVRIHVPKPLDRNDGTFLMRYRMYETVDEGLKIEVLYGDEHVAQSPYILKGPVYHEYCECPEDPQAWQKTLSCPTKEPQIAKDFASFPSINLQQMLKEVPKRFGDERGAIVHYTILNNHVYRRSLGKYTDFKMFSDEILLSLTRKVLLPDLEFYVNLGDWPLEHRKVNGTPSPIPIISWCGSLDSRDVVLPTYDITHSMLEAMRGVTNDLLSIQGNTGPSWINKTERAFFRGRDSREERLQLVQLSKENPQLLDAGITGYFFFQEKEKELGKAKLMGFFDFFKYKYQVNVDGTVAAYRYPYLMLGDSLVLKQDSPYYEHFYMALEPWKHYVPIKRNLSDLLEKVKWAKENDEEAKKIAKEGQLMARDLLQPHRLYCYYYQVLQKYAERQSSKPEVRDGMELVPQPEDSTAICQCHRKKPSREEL
UniProt Q13526, 96-117: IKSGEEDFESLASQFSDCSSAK
UniProt P19174: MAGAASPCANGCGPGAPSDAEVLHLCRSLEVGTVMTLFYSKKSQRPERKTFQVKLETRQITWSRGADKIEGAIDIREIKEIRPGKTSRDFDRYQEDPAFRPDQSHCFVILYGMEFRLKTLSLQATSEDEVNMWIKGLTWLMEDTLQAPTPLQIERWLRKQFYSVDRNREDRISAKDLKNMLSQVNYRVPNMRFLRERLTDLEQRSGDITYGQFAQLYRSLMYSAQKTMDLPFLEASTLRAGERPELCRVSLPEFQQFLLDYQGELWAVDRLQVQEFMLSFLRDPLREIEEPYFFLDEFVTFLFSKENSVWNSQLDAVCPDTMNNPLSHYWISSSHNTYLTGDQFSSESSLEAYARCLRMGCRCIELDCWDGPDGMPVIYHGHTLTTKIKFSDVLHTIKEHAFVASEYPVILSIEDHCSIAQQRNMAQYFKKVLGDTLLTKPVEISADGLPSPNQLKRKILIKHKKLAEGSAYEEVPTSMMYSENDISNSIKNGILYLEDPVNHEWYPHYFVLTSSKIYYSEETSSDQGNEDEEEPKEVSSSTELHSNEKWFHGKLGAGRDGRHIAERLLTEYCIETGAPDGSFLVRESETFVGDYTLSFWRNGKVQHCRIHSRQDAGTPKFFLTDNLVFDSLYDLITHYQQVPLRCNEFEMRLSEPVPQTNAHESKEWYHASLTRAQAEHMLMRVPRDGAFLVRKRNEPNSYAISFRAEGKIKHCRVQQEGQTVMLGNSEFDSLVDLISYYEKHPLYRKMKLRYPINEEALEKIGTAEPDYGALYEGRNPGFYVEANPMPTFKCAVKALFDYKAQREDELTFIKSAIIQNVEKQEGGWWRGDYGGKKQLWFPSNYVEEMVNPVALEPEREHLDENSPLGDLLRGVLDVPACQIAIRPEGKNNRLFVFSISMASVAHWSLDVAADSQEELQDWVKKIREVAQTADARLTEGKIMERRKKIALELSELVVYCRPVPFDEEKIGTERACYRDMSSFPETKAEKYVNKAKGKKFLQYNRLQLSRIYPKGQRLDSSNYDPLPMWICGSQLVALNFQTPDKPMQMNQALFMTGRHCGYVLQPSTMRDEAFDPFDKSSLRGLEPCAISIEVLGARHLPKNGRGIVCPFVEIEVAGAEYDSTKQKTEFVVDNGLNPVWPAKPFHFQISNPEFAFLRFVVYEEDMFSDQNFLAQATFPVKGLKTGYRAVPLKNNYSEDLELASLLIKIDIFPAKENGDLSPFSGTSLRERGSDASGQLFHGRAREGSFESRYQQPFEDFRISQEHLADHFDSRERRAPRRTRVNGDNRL
UniProt Q9BSJ6: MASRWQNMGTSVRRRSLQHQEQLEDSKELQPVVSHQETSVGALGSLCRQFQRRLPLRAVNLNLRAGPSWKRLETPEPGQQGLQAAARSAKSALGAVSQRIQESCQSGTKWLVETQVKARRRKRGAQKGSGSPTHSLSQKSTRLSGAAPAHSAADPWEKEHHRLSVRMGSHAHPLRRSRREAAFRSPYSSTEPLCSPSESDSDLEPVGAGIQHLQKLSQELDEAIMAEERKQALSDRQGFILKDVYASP
UniProt Q99569: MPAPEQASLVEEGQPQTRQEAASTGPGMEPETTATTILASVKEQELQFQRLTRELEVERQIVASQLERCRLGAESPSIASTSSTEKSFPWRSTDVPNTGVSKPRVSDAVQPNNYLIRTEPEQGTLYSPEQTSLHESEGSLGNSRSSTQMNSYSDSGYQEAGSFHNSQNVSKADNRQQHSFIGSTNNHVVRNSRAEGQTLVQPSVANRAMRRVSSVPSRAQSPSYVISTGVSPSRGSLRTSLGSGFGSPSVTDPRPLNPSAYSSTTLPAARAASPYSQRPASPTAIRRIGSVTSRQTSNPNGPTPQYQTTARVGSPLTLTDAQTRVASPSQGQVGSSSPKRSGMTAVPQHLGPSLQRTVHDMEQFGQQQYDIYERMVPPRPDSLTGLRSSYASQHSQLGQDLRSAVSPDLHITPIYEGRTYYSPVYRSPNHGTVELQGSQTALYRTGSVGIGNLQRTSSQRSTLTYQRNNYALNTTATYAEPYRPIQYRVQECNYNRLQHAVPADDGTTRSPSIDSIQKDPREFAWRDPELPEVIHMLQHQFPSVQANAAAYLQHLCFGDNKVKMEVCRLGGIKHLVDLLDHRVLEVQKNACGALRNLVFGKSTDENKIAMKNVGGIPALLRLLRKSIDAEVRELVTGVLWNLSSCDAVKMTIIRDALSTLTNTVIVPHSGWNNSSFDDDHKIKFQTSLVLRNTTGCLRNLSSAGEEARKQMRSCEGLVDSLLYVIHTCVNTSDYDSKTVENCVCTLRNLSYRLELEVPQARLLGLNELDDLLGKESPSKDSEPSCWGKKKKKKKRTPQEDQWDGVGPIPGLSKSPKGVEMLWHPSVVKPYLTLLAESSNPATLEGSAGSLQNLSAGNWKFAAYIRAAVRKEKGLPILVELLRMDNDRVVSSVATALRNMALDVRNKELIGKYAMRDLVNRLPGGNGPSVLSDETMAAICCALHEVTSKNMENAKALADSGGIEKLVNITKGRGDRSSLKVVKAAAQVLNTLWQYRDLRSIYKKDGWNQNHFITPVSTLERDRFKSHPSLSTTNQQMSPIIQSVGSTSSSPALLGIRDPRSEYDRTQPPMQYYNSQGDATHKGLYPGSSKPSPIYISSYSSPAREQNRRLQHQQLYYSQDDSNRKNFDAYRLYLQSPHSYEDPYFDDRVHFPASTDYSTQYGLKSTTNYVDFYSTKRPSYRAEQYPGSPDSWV
UniProt P53350: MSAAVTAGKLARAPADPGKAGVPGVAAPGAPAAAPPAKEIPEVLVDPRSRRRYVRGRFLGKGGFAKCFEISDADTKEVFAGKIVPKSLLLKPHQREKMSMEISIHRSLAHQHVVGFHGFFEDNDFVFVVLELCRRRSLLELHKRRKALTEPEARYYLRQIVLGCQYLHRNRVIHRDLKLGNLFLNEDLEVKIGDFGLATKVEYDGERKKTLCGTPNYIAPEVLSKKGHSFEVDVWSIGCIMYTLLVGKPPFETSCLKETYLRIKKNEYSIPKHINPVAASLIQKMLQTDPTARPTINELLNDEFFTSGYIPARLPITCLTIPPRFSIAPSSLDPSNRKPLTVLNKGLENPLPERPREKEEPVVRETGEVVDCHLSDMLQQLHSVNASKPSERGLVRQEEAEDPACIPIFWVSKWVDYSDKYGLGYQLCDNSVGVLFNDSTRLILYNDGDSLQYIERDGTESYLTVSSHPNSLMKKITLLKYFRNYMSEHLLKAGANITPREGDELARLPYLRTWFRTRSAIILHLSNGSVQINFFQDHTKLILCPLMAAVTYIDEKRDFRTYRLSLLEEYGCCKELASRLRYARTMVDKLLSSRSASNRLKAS

The other results are listed elsewhere or left out. The data scatter; read single values as rough.

Compound in the assay: ClCC(=O)N[C@H]1CCCc2ccccc12
Briefly: log2 mean competition ratio of IA-DTB cysteine labelling (DMSO/compound) (log2 ratio); higher = stronger cysteine engagement by compound. The following applies: treatment time: 4 h, cell line lysate: HEK293T. The protocol: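 IA-DTB competitive cysteine chemoproteomics in HEK293T RIPA lysate. Lysates were treated with compound 29 or 30 at 50 or 200 µM for 4 h, then IA-DTB (500 µM, 1 h), trypsin-digested, NeutrAvidin-enriched and analysed by diaPASEF. Competition ratio = intensity DMSO / intensity compound (n=4 treated, n=64 DMSO); binding: mean log2 CR ≥ 1 and p ≤ 0.05 plus QC filters. Target is the cysteine site.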

Consider PKN3 C131 (UniProt Q6P5Z2), for which the “log2 mean competition ratio” value (50 µM) was -0.224 and the “log2 mean competition ratio” value (200 µM) amounted to 0.0522.

On to POLR1B C855 (UniProt Q9H9Y6), for which the “log2 mean competition ratio” value is, setting by setting: (50 µM) -0.438; (200 µM) -0.145.

For PHF5A C85 (UniProt Q7RTV0), the “log2 mean competition ratio” value (50 µM) is 0.0635 and the “log2 mean competition ratio” value (200 µM) was -0.135.

For the target PKNOX1 C326 (UniProt P55347), the “log2 mean competition ratio” value (50 µM) amounted to 0.287 and the “log2 mean competition ratio” value (200 µM) is 0.211.

For the target POGLUT3 C156 (UniProt Q7Z4H8), the “log2 mean competition ratio” value was 0.0756 (50 µM) and -0.0477 (200 µM).

As to POLR1A C1332 (UniProt O95602), the “log2 mean competition ratio” value runs as follows: (50 µM) -0.732; (200 µM) -0.116.

On to PIN1 C113 (UniProt Q13526), for which the “log2 mean competition ratio” value reads like this: (50 µM) 0.186; (200 µM) 0.239.

PLCG1 C881 (UniProt P19174): the “log2 mean competition ratio” value (50 µM) was -0.615 and the “log2 mean competition ratio” value (200 µM) was found to be 0.00803.

In the case of PIMREG C104 (UniProt Q9BSJ6), the “log2 mean competition ratio” value was -0.116 (50 µM) and -0.0481 (200 µM).

For PKP4 C591 (UniProt Q99569), the “log2 mean competition ratio” value is, setting by setting: (50 µM) 0.228; (200 µM) 0.158.

As to PLCG1 C247 (UniProt P19174), the “log2 mean competition ratio” value runs as follows: (50 µM) -0.051; (200 µM) 0.124.

For PLOD2 C379 (UniProt O00469), the “log2 mean competition ratio” value runs as follows: (50 µM) 0.123; (200 µM) 0.0921.

In the case of PITX1 C278 (UniProt P78337), the “log2 mean competition ratio” value stood at 0.0552 (50 µM) and 0.11 (200 µM).

As for PLK1 C405 (UniProt P53350), the “log2 mean competition ratio” value (50 µM) is 0.162 and the “log2 mean competition ratio” value (200 µM) turned out to be 0.226.

Turning to POLR1C C256 (UniProt O15160), the “log2 mean competition ratio” value runs as follows: (50 µM) 0.155; (200 µM) 0.0114.
